In PubChem BioAssay AID488966 (Southern Research Specialized Biocontainment Screening …, 2010):
In all, about 340,000 compounds went through this assay and about 55 (0.02%) were called active. This list was built around the results that the source calls inconclusive (neither active nor inactive); the mix of calls is not that of the screen.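 How the source made its calls: active means phage lysis inhibition, versus mean bacterial control, above a set limit; inconclusive means no clear call, values can overlap the other calls; inactive means the rest.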

Experiment: protection from phage-mediated lysis, alamar blue read-out – E. coli UTI89, K1F phage, bacterial capsule biogenesis inhibitors (AID 488966);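 further: capsule biogenesis inhibitors block K1F phage lysis so surviving cells raise fluorescence; higher fluorescence means more inhibition of phage lysis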
Settings: 2 h; inhibition: at 100 µM, active compounds read high unless noted; series mostly up to 300 µM

inhibition, inactive:
COc1cc(/C=N/N=C(N)N)ccc1OCc1ccc(Cl)cc1 1.12%
COc1cccc(-c2c(C(=O)N/N=C(\C)c3cccs3)nnn2-c2nonc2N)c1 0.38%
COc1ccc(C(C)(C)C)cc1S(=O)(=O)N1CCN(C)CC1 0.43%
COc1cc2cc(C(=O)NCCc3ccccc3)[nH]c2cc1OC -0.295% [at 50 µM, active compounds read high]
COc1ccccc1OCC(=O)NNC(=O)c1cccs1 5.22%
CCC(OC(=O)c1nsc(Cl)c1Cl)C(=O)NCCOC (configuration not stated) -0.07%
COc1ccc(S(=O)(=O)N2CCN(c3ccccc3OC)CC2)cc1 0.03%
COc1cc(OC)c(OC)cc1CN(C)CC1CCCN(CCc2ccccc2F)C1 (configuration not stated) 0.88%
O=C(COC(=O)c1ccccn1)Nc1ncc(C(F)(F)F)cc1Cl 1.67%
CSc1ccc(CN(C)CC(=O)Nc2ccc(NC(C)=O)cc2)cc1 -0.1%
COc1ccc(CCNC(=O)C23CCC(C)(C(=O)O2)C3(C)C)cc1OC (configuration not stated) 1.58% [at 50 µM, active compounds read high]
COc1ccc2c(=O)c(-c3ccc(C)cc3)c(-c3ccccc3)oc2c1 0.1%
CCOc1ccc(C(=O)C(CCC(CN(C)C)C(=O)c2ccc(OCC)cc2)CN(C)C)cc1 (configuration not stated) 0.87%
Clc1ccc(-n2nnnc2-c2cnc3ccc(Cl)cc3c2-c2ccccc2)cc1 0.85%
CN(C)S(=O)(=O)c1ccc(C(=O)N(c2ccccn2)c2ccccn2)cc1 0.22%
COc1ccc2c(c1)C1=C(CC2)C(c2ccc(C)cc2)NC(=S)N1 (configuration not stated) -0.41%
N=c1n(CCN2CCCCC2)c2ccccc2n1CC(O)c1ccc(Cl)c(Cl)c1 (configuration not stated) -4.43%
CC(C)Oc1ccc(C2c3c(oc4ccccc4c3=O)C(=O)N2CCCN2CCOCC2)cc1 (configuration not stated) 7.09%
NC(N)=N/N=C/c1ccc(OCc2ccccc2)c(OCc2ccccc2)c1 1.28%
O=C(Oc1coc(CSc2nnc(NC(=O)C3CC3)s2)cc1=O)c1ccccc1 4.85%

inhibition, inconclusive:
CC[C@H](C)[C@@H](C(=O)NCCCCCCCCCCC(=O)N1CCNCC1)n1cc(CCCCN=C(N)N)nn1 21.5%
Cc1cc(C)c(C#N)c(SCC(=O)CC(=O)OC(C)C)n1 15.3%
CCC(=O)Nc1nc2ccccc2n1CCN1CCOCC1 15.9%
Cc1nnc(SCC(=O)NCc2ccccc2Cl)n(N)c1=O 20.2% [at 50 µM, active compounds read high]
Cc1cc(/C=C2/C(=N)N3C(=NC2=O)SN=C3S(C)(=O)=O)c(C)n1-c1ccccc1 18.7%
CCOC(=O)c1c(C)[nH]c(C(=O)CN(C)CC(=O)Nc2ccccc2C(F)(F)F)c1C 99%
CS(=O)(=O)N(Cc1ccc(C(=O)NN=C2CCCC2)cc1)c1ccccc1 22%
NCCNc1ccc([N+](=O)[O-])c(Sc2nc3ccccc3[nH]2)c1 17.5%
O=C(Nc1ccc(Cl)cc1)Nc1ccc2c(c1)N1CCN=C1S2 16.5%
Fc1ccc(Nc2nnc(C(F)(F)F)s2)cc1Cl 19.1%
CC(=O)OC(COC1C[C@@H]2CC[C@@]1(C)C2(C)C)C[N+]1(C)CCCCC1 (some centres not stated) 15.4%
CCCCN1C(=N)N([C@@H](CCC)CN2CCC[C@H]2CN2C(N)=NC[C@@H]2Cc2ccccc2)C[C@H]1Cc1ccccc1 24.9%
CCOc1ccc(Br)cc1S(=O)(=O)Nc1ccc(NC(=O)c2ccccc2F)cc1 20.4%
Cc1cc(=O)oc2ccc(OC(=O)CC(C)C)cc12 17.7%
CN1C(=O)NC(c2cccc(O)c2)C(C(=O)c2cccs2)C1(O)C(F)(F)F (configuration not stated) 20.3%
Cc1cc(NC(=O)CCC(=O)N(CC(=O)NC2CCCC2)Cc2cccs2)no1 20.7%
CCOc1ccc(C2c3c(oc4ccccc4c3=O)C(=O)N2CCCN2CCOCC2)cc1 (configuration not stated) 19.8%
N=C1/C(=C\c2ccc(OC(=O)c3ccco3)cc2)C(=O)N=C2SC(N3CCCCC3)=NN12 33.6%
COc1ccc(C(=O)Cn2nc(CNc3ccc(Br)cc3)[n+]3c2CCCCC3)cc1 18.4%
C=CCC(C)(NCc1ccccc1)c1ccccc1 (configuration not stated) 17.7%
COc1ccc(C(C[N+](=O)[O-])c2c(-c3ccccc3)cc3ccccn23)cc1 (configuration not stated) 117%
N=c1n(Cc2ccc(Cl)cc2)c2ccccc2n1CC(O)c1ccco1 (configuration not stated) 15.9%
C[C@@H](CN1CCC[C@H]1CN1C(N)=NC[C@@H]1Cc1ccccc1)N1C[C@@H](Cc2ccccc2)N(CCCC2CCCC2)C1=N 37.6%
CCC(C)NCCOCCOc1ccc(Cl)c(C)c1C (configuration not stated) 15.3%
COc1ccccc1/C=C1\S/C(=N/NC(=O)c2cccc(Br)c2)NC1=O 65.9%
CCO/C=C1\C(=O)N(c2ccccc2)C(=O)c2ccccc21 8.69%
O=C(C[n+]1cc(-c2ccccc2)n2c1CCC2)Nc1nc(-c2ccccc2)cs1 17.6%
CCOc1ccc(NC(=S)/C(=C(\[O-])c2ccc(C)c([N+](=O)[O-])c2)[n+]2ccccc2)cc1 0.925% [at 50 µM, active compounds read high]
CN1CCCN(C(c2ccccc2)c2ccc(Cl)cc2)CC1 (configuration not stated) 19.4%
CCOC(=O)c1ccc(NC(=O)Nc2ccc(S(N)(=O)=O)cc2)cc1 18.7%
CSC(=S)NN=C(C)c1cccc(C)n1 18.5%
N=c1n(CCc2ccccc2)c2ccccc2n1Cc1ccccc1F 16.3%
CN(C)CC1CCCCC1OC(=O)/C=C/c1ccc(Cl)cc1Cl (configuration not stated) 21.2%
CCOc1cccc(/C=N/NC(=S)Nc2cc(S(=O)(=O)N3CCOCC3)ccc2N2CCOCC2)c1O 17.7%
Cc1cc(C)c(C#N)c(SCc2cc3c(cc2Cl)OCO3)n1 7.76%
O=S(=O)(c1ccc(F)c2ccccc12)N1CCCCC1 18.7%
O=C(CNC(=S)N(Cc1ccccc1F)C1CCCCC1)NC1CC1 17.9%
O=[N+]([O-])c1ccc(N2CCN(C(=S)NC3CCCCC3)CC2)cc1 0.35% [at 50 µM, active compounds read high]
CCc1ccc2nc(N=C(N)N)nc(C)c2c1 15.7%
c1ccc(-c2nnc(-c3ccccc3)o2)cc1 16.4%
CCCOc1ccc(C2NC(=S)NC(c3ccccc3)=C2C(=O)Nc2ccc(C)cc2)cc1OC (configuration not stated) 17.3%
c1ccc(-c2ccc(-c3cnc4n3CCCCC4)cc2)cc1 16% [at 50 µM, active compounds read high]
CCN(CC)S(=O)(=O)c1cc(C(=O)Nc2cccnc2)ccc1Cl 20%
CN1CCN(c2ccccc2NC(=O)c2ccc(-c3ccccc3)cc2)CC1 3.54% [at 50 µM, active compounds read high]
Oc1c(Cl)cc(Oc2cc(Cl)c(O)c(CN3CCOCC3)c2)cc1CN1CCOCC1 33.6%
CN(C)CCNC(=O)/C(=C/c1ccc(-c2ccc(Cl)cc2)o1)NC(=O)c1ccccc1 18.7%
Cc1ccc(NC(=O)c2ccc(NCCN)c([N+](=O)[O-])c2)cc1 21.1%
Cc1c2cc[n+](CCN3CCCCC3)cc2c(C)c2c1[nH]c1ccc(O)cc12 93.2%
COc1ccc(S(=O)(=O)Nc2nnc(C(C)(C)C)s2)cc1 21.1%
Cc1cc(C)nc(NC2=NCC(=O)N2c2ccccc2)n1 16.4%
Cc1nc(SCc2cccc(F)c2)[nH]c(=O)c1C#N 18.6%
O=C(CSc1nnnn1-c1ccc(Cl)cc1)N1CCNC1=O 15.7%
COc1cc(C(=O)NNC(=S)NC(=O)c2ccccc2C)cc(OC)c1OC 16.4%
COCCNC(=O)/C(C#N)=C/c1ccc(OCc2ccccc2)cc1 18.8%
Cc1noc(C)c1C(=O)OCC(=O)N(C)C1CCS(=O)(=O)C1 (configuration not stated) 18.8%
CCC[C@@H](CN1CCC[C@H]1CN1C(N)=NC[C@@H]1Cc1ccccc1)N1C[C@@H]([C@H](C)CC)N(CCCC2CCCC2)C1=N 137%
O=C(Nc1ccc(Nc2ccccc2)cc1)c1cc([N+](=O)[O-])ccc1Cl 21.4%
N=C1/C(=C\c2ccc(OC(=O)c3ccccc3)cc2)C(=O)N=C2SC(N3CCOCC3)=NN12 93%
CCNC(=O)CC1C(=O)N(c2ccccc2)C(=O)N1CCc1ccc(OC)c(OC)c1 (configuration not stated) 18.2%
Cc1ccc(S(=O)(=O)Nc2ccc(Oc3cccnc3)nc2)cc1 20.5%
COc1ccc(CC(=O)Nc2cc(S(=O)(=O)N3CCOCC3)ccc2N2CCCC2)cc1OC 17.1%
O=C(NCC1CCCCC1)C1(CC2CC(c3ccc(Cl)cc3)=NO2)CCNCC1 (configuration not stated) 24%

An excerpt from the list above, for reference:
inhibition, inconclusive:
Cc1cc(/C=C2/C(=N)N3C(=NC2=O)SN=C3S(C)(=O)=O)c(C)n1-c1ccccc1 18.7%
CCOC(=O)c1c(C)[nH]c(C(=O)CN(C)CC(=O)Nc2ccccc2C(F)(F)F)c1C 99%
CS(=O)(=O)N(Cc1ccc(C(=O)NN=C2CCCC2)cc1)c1ccccc1 22%
NCCNc1ccc([N+](=O)[O-])c(Sc2nc3ccccc3[nH]2)c1 17.5%
O=C(Nc1ccc(Cl)cc1)Nc1ccc2c(c1)N1CCN=C1S2 16.5%
Fc1ccc(Nc2nnc(C(F)(F)F)s2)cc1Cl 19.1%
CC(=O)OC(COC1C[C@@H]2CC[C@@]1(C)C2(C)C)C[N+]1(C)CCCCC1 (some centres not stated) 15.4%
CCCCN1C(=N)N([C@@H](CCC)CN2CCC[C@H]2CN2C(N)=NC[C@@H]2Cc2ccccc2)C[C@H]1Cc1ccccc1 24.9%
CCOc1ccc(Br)cc1S(=O)(=O)Nc1ccc(NC(=O)c2ccccc2F)cc1 20.4%
Cc1cc(=O)oc2ccc(OC(=O)CC(C)C)cc12 17.7%
CN1C(=O)NC(c2cccc(O)c2)C(C(=O)c2cccs2)C1(O)C(F)(F)F (configuration not stated) 20.3%
Cc1cc(NC(=O)CCC(=O)N(CC(=O)NC2CCCC2)Cc2cccs2)no1 20.7%
CCOc1ccc(C2c3c(oc4ccccc4c3=O)C(=O)N2CCCN2CCOCC2)cc1 (configuration not stated) 19.8%
N=C1/C(=C\c2ccc(OC(=O)c3ccco3)cc2)C(=O)N=C2SC(N3CCCCC3)=NN12 33.6%
COc1ccc(C(=O)Cn2nc(CNc3ccc(Br)cc3)[n+]3c2CCCCC3)cc1 18.4%
C=CCC(C)(NCc1ccccc1)c1ccccc1 (configuration not stated) 17.7%
COc1ccc(C(C[N+](=O)[O-])c2c(-c3ccccc3)cc3ccccn23)cc1 (configuration not stated) 117%
N=c1n(Cc2ccc(Cl)cc2)c2ccccc2n1CC(O)c1ccco1 (configuration not stated) 15.9%
C[C@@H](CN1CCC[C@H]1CN1C(N)=NC[C@@H]1Cc1ccccc1)N1C[C@@H](Cc2ccccc2)N(CCCC2CCCC2)C1=N 37.6%
CCC(C)NCCOCCOc1ccc(Cl)c(C)c1C (configuration not stated) 15.3%
COc1ccccc1/C=C1\S/C(=N/NC(=O)c2cccc(Br)c2)NC1=O 65.9%
CCO/C=C1\C(=O)N(c2ccccc2)C(=O)c2ccccc21 8.69%
O=C(C[n+]1cc(-c2ccccc2)n2c1CCC2)Nc1nc(-c2ccccc2)cs1 17.6%
